From PubChem BioAssay AID2685 (National Center for Advancing Translational Sciences (NCATS), 2010)
Hit rate of the full screen: of about 320,000 compounds, about 2,100 (0.66%) were called active. This list was built around the results that the source calls inconclusive (neither active nor inactive); the mix of calls is not that of the screen. The call rests on the fitted dose curve; in most records, active means well fitted inhibition curve with a large enough effect in the signal ratio, with a control signal flat (not every such curve was filed as active); inconclusive means small, poorly fitted or top-dose-only effect, or effect the other way, or a change in a side signal; inactive means flat fitted curve, though single readings scatter; the % refers to the signal ratio. A potency beside an inconclusive call is a rough fit, not a confirmed value.

Assay: qHTS Assay for Lipid Storage Modulators in Drosophila S3 Cells
Settings: BODIPY lipid droplet fluorescence, 18-24 h, cells fed with added oleic acid; lipid storage change, negative = inhibition: at 46.1 µM (top of the series) unless noted
In short: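 Drosophila S3 cells loaded with oleic acid (400 uM, as added) and compounds at several concentrations; lipid droplets imaged by 488-nm laser-scanning cytometry, 500–530 nm intensity and object ratio to cell channel. Percent activity normalized to 20 uM Triacsin C.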
On the % scale 0 is the no-effect control and ±100 the full control effect; potency means the concentration at half of the fitted maximal effect.

| Compound | lipid storage change, negative = inhibition | Potency |
| --- | --- | --- |
| O=C(N/N=C/C(Cl)=C\c1ccccc1)c1cnccn1 | inconclusive: -16.3% | – |
| CC(=O)Nc1ccc(OCCCNC(=O)c2c(-c3ccccc3)noc2C)cc1 | inactive: -5.94% | – |
| c1ccc(CCN2CCN=C2Nc2ccccc2)cc1 | – | inconclusive: 10.3 µM [falling, partial curve, poor fit] |
| COC(=O)c1ccc(C23CC4(C2)[C@H](CN(Cc2cccnc2)[C@@H]4c2ccccc2)C3c2ccc(Cl)nc2)cc1 (stereo partly drawn) | inconclusive: 20.3% | – |
| CC(C)c1ccc(S(=O)(=O)N2CCN(C(=O)c3ccc(N4CCCC4)c([N+](=O)[O-])c3)CC2)cc1 | – | inconclusive: 0.58 µM [falling, single point] |
| CCc1ccc(N(CC(=O)NC)S(C)(=O)=O)cc1 | – | inconclusive: 32.6 µM [falling, partial curve, poor fit] |
| O=C1CC(C(=O)N2CCN(c3ccccc3O)CC2)CN1Cc1ccccc1 (stereo not drawn) | – | inconclusive: 20.6 µM [activator, partial curve] |
| Nc1ccc2nc(CCc3ccccc3)[nH]c2c1 | inconclusive: 40.2% | – |
| CCN(CC)C(=O)CSc1nnc([C@@H](N)Cc2ccccc2)o1 | – | inconclusive: 0.103 µM [falling, full curve, poor fit] |
| COc1ccc(Cc2nc3ccc(C(=O)NCCn4cccn4)cc3o2)cc1 | inconclusive: 29.7% | – |
| Cc1ccc(CNC(=O)CS(=O)Cc2nc(-c3ccccc3C)oc2C)cc1 (stereo not drawn) | – | inconclusive: 9.2 µM [rising, partial curve, poor fit] |
| CCn1cc(S(=O)(=O)CC(=O)Nc2cc(C)on2)c2ccccc21 | inconclusive: -19.5% | – |
| Cc1ccccc1NC(=O)c1cc(S(=O)(=O)N2CCOCC2)cs1 | inconclusive: -2.18% | – |
| Cc1cccc(COc2ccccc2/C=N/Nc2ccc([N+](=O)[O-])cc2)c1 | – | inconclusive: 5.17 µM [activator, single point] |
| CC(=O)Nc1ccc(NC(=O)CCn2cnnn2)cc1 | inconclusive: -51.1% | – |
| COCCNC(=O)/C(C#N)=C/C(C)=C/c1ccccc1 | inconclusive: 194% | – |
| CC1Cc2ccccc2N1C1=CC(=O)CCC1 (stereo not drawn) | inconclusive: 21.1% | – |
| CCCc1nc(N)c(C#N)c(-c2cccnc2)c1CC | inconclusive: 7.4% | – |
| O=c1c2[nH]c3ccccc3c2ncn1Cc1cccnc1 | inconclusive: 21.2% | – |
| Cc1nnsc1NC(=O)OCc1ccc(Cl)cc1Cl | inconclusive: 1.37% | – |
| CCc1nnc(NC(=O)CCC(=O)N2CCN(c3cccc(Cl)c3)CC2)s1 | inconclusive: 15% | – |
| COc1cc2c(cc1OC)C(c1ccsc1)CC(=O)N2 (stereo not drawn) | inconclusive: 29.9% | – |
| Cc1cc(NC(=O)CSCC(=O)OCC(=O)Nc2cc(C)c(C)cc2[N+](=O)[O-])no1 | inconclusive: 10.9% | – |
| CC(Oc1ccc(C#N)cc1)C(=O)NC1CCCC1 (stereo not drawn) | – | inconclusive: 4.11 µM [falling, partial curve] |
| O=S(=O)(c1cccc(NC(=S)N2CCN(c3ccc(F)cc3)CC2)c1)C(F)F | inconclusive: -13% | – |
| COC(=O)c1c(NC(=O)c2ccco2)sc(C(=O)Nc2ccc(F)cc2)c1C | – | inconclusive: 1.3 µM [activator, full curve, poor fit] |

| Compound | lipid storage change, negative = inhibition | Potency |
| --- | --- | --- |
| Cc1ccc2nc(C3CCN(C(=O)c4ccco4)CC3)[nH]c2c1 | inconclusive: 89% | – |
| CC1(C)CC(=O)N(CC(=O)NCc2ccc(F)cc2)c2ccccc2S1(=O)=O | inconclusive: -7.69% | – |
| COc1ccc(C)cc1NC(=O)C1CCN(S(=O)(=O)c2ccc3c(c2)NC(=O)CO3)CC1 | – | inconclusive: 11.6 µM [falling, single point] |
| COc1ccc(C(=O)NCCNC(=O)c2cnccn2)cc1 | inconclusive: 10.7% | – |
| O=C(CSc1cccc[n+]1[O-])Nc1cccc(S(=O)(=O)NC2=NCCCCC2)c1 | inconclusive: 28.2% | – |
| COc1ccc(C)cc1NC(=O)NCc1ccccn1 | inconclusive: 17.2% | – |
| O=C1C2C3C=CC(C4CC34)C2C(=O)N1/N=C/c1ccc(-c2ccccc2[N+](=O)[O-])o1 (stereo not drawn) | – | inconclusive: 2.31 µM [activator, full curve] |
| O=C(NC(=S)N1CCN(C/C=C/c2ccccc2)CC1)c1ccco1 | – | inconclusive: 29.1 µM [falling, single point] |
| O=C(NC1CCCC1)C1CCN(C(=O)Nc2cccc(Cl)c2)CC1 | – | inconclusive: 0.326 µM [falling, partial curve, poor fit] |
| C=CCOc1ccc(-c2nc3c(c(=O)[nH]c(=O)n3Cc3ccccc3)n2CCCOC)cc1 | inactive: -1% | – |
| C=CCn1c(NCCOC)nc2c1c(=O)n(C)c(=O)n2C | inconclusive: -145% | – |
| Cc1c(CCC(=O)O)c(=O)oc2cc(O)ccc12 | inconclusive: -57.9% | – |
| COc1ccccc1CNC(=O)CN(Cc1ccc(Cl)cc1)S(C)(=O)=O | inconclusive: 1.12% | – |
| CCOC(=O)c1c(N)sn(-c2ccccc2)c1=S | inconclusive: -66.8% | – |
| Cc1ccc(-n2nc(C)c(Sc3ccccc3[N+](=O)[O-])c2N)cc1 | – | inconclusive: 29.1 µM [activator, single point] |
| N#Cc1ccc(CNc2cnccn2)cc1 | – | inconclusive: 0.0046 µM [rising, full curve, poor fit] |
| CC(N=C1NS(=O)(=O)c2ccccc21)C(=O)NCCCc1ccccc1 (stereo not drawn) | inconclusive: 35.2% | – |
| Cc1cc(C)cc(NC(=O)CCC(=O)N2CCSc3ccccc32)c1 | inconclusive: -37.5% | – |
| O=C(CN1CCN(Cc2ccccc2Cl)C1=O)NC1CCCCCC1 | inconclusive: -12.1% | – |
| CCCc1nn(C)c2c(=O)[nH]c(-c3ccccc3OCC)nc12 | inconclusive: 4.11% | – |
| O=C(NC(=S)Nc1ccccc1Br)C1CCC1 | – | inconclusive: 1.84 µM [activator, partial curve] |
| O=C(NCCCN1CCOCC1)C1(c2ccccc2)CCOCC1 | – | active: 3.66 µM |
| COC(=O)CNC(=O)COc1ccccc1 | – | active: 25.9 µM |
| COc1ccc(Nc2ncnc3c2cnn3-c2ccccc2)cc1OC | inconclusive: 20.1% | – |
| Cc1ccccc1NC(=O)CSc1nc2cc3c(cc2cc1C)CCC3 | inconclusive: 40.6% | – |
| O=C(c1ccc2nc3ccccc3c(=O)n2c1)N1CCN(Cc2ccc3c(c2)OCO3)CC1 | inconclusive: 101% | – |

| Compound | lipid storage change, negative = inhibition | Potency |
| --- | --- | --- |
| c1ccc2c(c1)CC1(CCCC1)n1nnnc1-2 | – | inconclusive: 0.0206 µM [falling, full curve] |
| CCN(C(=O)c1cc(S(=O)(=O)N2CCc3ccccc32)cn1C)c1ccccc1 | – | inconclusive: 23.1 µM [falling, single point] |
| CSc1nnc(SCC(=O)NC(=O)c2ccccc2)s1 | inconclusive | – |
| Cc1cccc(C)c1NC(=O)COC(=O)COc1ccc2c(C)cc(=O)oc2c1 | inconclusive: 16.5% | – |
| COCCC(=O)N1CCC(Oc2ccc(C(=O)NCCSC)cc2)CC1 | – | inconclusive: 7.31 µM [activator, partial curve] |
| Cc1ccc(/C=C2\SC(=S)N(CCCC(=O)NNC(=O)c3ccccc3O)C2=O)cc1 | inactive: -0.747% | – |
| Cc1cc(C)n(CC(=O)NNC(=O)C2CC(=O)N(Cc3ccccc3Cl)C2)n1 (stereo not drawn) | inconclusive: 11.9% | – |
| COc1ccc(N(C(=O)c2cnsn2)C(C(=O)NC2CCCCC2)c2ccncc2)cc1 (stereo not drawn) | inconclusive: -31.3% | – |
| COc1ccc(C(=O)Nc2nc(-c3ccc(S(=O)(=O)N4CCOCC4)cc3)cs2)cc1 | – | inconclusive: 9.2 µM [activator, partial curve] |
| Cc1ccc(N2C(=O)C(CN3CCCC3)C2c2ccccc2)cc1 (stereo not drawn) | – | inconclusive: 20.6 µM [falling, single point] |
| C=CCc1cccc2cc(NC(C)=O)c(=O)oc12 | inconclusive: -12.6% | – |
| CCCCN(CCCC)C(=S)NC(=O)C(C)(C)C | inconclusive: 31.1% | – |
| Cc1ccc(C(=O)C(OC(=O)c2cnccn2)c2ccccc2)cc1C (stereo not drawn) | inconclusive: 11.2% | – |
| O=C(N/C(=C/c1ccc(Br)cc1)C(=O)N1CCCC1=O)c1ccco1 | inconclusive: -10.4% | – |
| O=C(CCNC(=O)c1ccccc1Cl)NCc1ccncc1 | inconclusive: 3.46% | – |
| Cc1c(S(=O)(=O)Nc2ccc3c(c2)OCCO3)c(=O)n(C)c(=O)n1C | inconclusive: 59% | – |
| O=C(CSc1nc2ccccc2c2nc3ccccc3n12)NCc1ccco1 | – | inconclusive: 0.164 µM [rising, full curve] |
| CC(C)N(Cc1ccccc1)C(=O)/C=C/c1ccccc1[N+](=O)[O-] | inconclusive: -17.6% | – |
| CCOc1ccccc1OCC(=O)NNC(=S)NC1CCCCC1 | inconclusive: 15.6% [at 9.22 µM] | – |
| O=C(NNC(=O)c1ccc(S(=O)(=O)N2CCCC2)cc1)c1ccc(Br)cc1 | inconclusive | – |
| Cc1nn2cc(-c3ccccc3)nc2s1 | – | inconclusive: 29.1 µM [activator, single point] |
| CC(Sc1ncnc2sc(-c3ccccc3)cc12)C(=O)N1CCNC1=O (stereo not drawn) | – | inconclusive: 20.6 µM [activator, partial curve] |
| Cc1cc(N/N=C/c2ccc(O)cc2O)c2ccccc2n1 | – | inconclusive: 0.326 µM [activator, full curve] |
| CNC(=O)c1ccc(N(Cc2ccccc2)S(C)(=O)=O)cc1 | – | inconclusive: 0.0184 µM [falling, full curve] |
| CN(CC(=O)NCCc1ccccn1)S(=O)(=O)c1ccc(Cl)cc1 | inconclusive: 28.1% | – |
| C/C(CC(=O)NC12CC3CC(CC(C3)C1)C2)=N\NC(=O)Cc1cccs1 | – | inconclusive: 20.6 µM [falling, single point] |

Nothing new here: entries from further up.

| Compound | lipid storage change, negative = inhibition | Potency |
| --- | --- | --- |
| Cc1ccc(N2C(=O)C(CN3CCCC3)C2c2ccccc2)cc1 (stereo not drawn) | – | inconclusive: 20.6 µM [falling, single point] |
| C=CCc1cccc2cc(NC(C)=O)c(=O)oc12 | inconclusive: -12.6% | – |
| CCCCN(CCCC)C(=S)NC(=O)C(C)(C)C | inconclusive: 31.1% | – |
| Cc1ccc(C(=O)C(OC(=O)c2cnccn2)c2ccccc2)cc1C (stereo not drawn) | inconclusive: 11.2% | – |
| O=C(N/C(=C/c1ccc(Br)cc1)C(=O)N1CCCC1=O)c1ccco1 | inconclusive: -10.4% | – |
| O=C(CCNC(=O)c1ccccc1Cl)NCc1ccncc1 | inconclusive: 3.46% | – |
| Cc1c(S(=O)(=O)Nc2ccc3c(c2)OCCO3)c(=O)n(C)c(=O)n1C | inconclusive: 59% | – |
| O=C(CSc1nc2ccccc2c2nc3ccccc3n12)NCc1ccco1 | – | inconclusive: 0.164 µM [rising, full curve] |
| CC(C)N(Cc1ccccc1)C(=O)/C=C/c1ccccc1[N+](=O)[O-] | inconclusive: -17.6% | – |
| CCOc1ccccc1OCC(=O)NNC(=S)NC1CCCCC1 | inconclusive: 15.6% [at 9.22 µM] | – |
| O=C(NNC(=O)c1ccc(S(=O)(=O)N2CCCC2)cc1)c1ccc(Br)cc1 | inconclusive | – |
| Cc1nn2cc(-c3ccccc3)nc2s1 | – | inconclusive: 29.1 µM [activator, single point] |
| CC(Sc1ncnc2sc(-c3ccccc3)cc12)C(=O)N1CCNC1=O (stereo not drawn) | – | inconclusive: 20.6 µM [activator, partial curve] |
| Cc1cc(N/N=C/c2ccc(O)cc2O)c2ccccc2n1 | – | inconclusive: 0.326 µM [activator, full curve] |
| CNC(=O)c1ccc(N(Cc2ccccc2)S(C)(=O)=O)cc1 | – | inconclusive: 0.0184 µM [falling, full curve] |
